PubChem BioAssay AID1224830 – NIAID, 2016

Screen: 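Regulators of TLR4 signalling towards TNF-alpha in macrophage-like cells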 (primary screen)
System: human THP-1 monocytic leukaemia cells, TNF dual-luciferase reporter clone, PMA-differentiated to macrophage-like cells
Reagent: siRNA pool against human genes, 50 nM
Timing: LPS for 4 h, given about 3 days after siRNA transfection
Treatment: bacterial LPS (TLR4 ligand), 10 ng/ml
Read-out: 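TNF firefly reporter luminescence divided by renilla, normalised to the plate median, then turned into a robust z-score for each replicate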
Scale: TNF reporter robust z-score: higher = stronger TNF reporter response to LPS
Active means: 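a well is active when its z-score exceeds 2.8 or falls below -1.5; control wells carry no call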
The whole screen tested about 18,000 reagents; shown is a random part of them. About 2,900 of all reagents (16%) count as active. 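Calls are made per well; low scores hint the gene aids the LPS response, high scores that it dampens it.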 Repeated entries: four replicate wells of each siRNA pool.

PSMD13 (proteasome 26S subunit, non-ATPase 13) gave TNF reporter robust z-score -0.25; inactive.
After knock-down of PSMD13 (proteasome 26S subunit, non-ATPase 13), the screen gave TNF reporter robust z-score 0.64; inactive.
With knock-down of PSMD13 (proteasome 26S subunit, non-ATPase 13), the screen gave TNF reporter robust z-score -1.1; inactive.
PSMD13 (proteasome 26S subunit, non-ATPase 13) gave TNF reporter robust z-score -0.03; inactive.
DPRX (divergent-paired related homeobox) gave TNF reporter robust z-score 1.18; inactive.
With knock-down of DPRX (divergent-paired related homeobox) the results were TNF reporter robust z-score 0.88; inactive.
DPRX (divergent-paired related homeobox) scored TNF reporter robust z-score 1.9; inactive.
Against DPRX (divergent-paired related homeobox) the deposit lists TNF reporter robust z-score 2.39; inactive.
For POLE (DNA polymerase epsilon, catalytic subunit) the deposit lists TNF reporter robust z-score -1.35; inactive.
After knock-down of POLE (DNA polymerase epsilon, catalytic subunit), the record shows TNF reporter robust z-score -1.47; inactive.
After knock-down of POLE (DNA polymerase epsilon, catalytic subunit), the screen gave TNF reporter robust z-score -1.1; inactive.
POLE (DNA polymerase epsilon, catalytic subunit) gave TNF reporter robust z-score -0.47; inactive.
Against GPRASP3 the deposit lists TNF reporter robust z-score 0.97; inactive.
With knock-down of GPRASP3, the screen gave TNF reporter robust z-score 0.64; inactive.
For GPRASP3, the values are TNF reporter robust z-score 0.13; inactive.
After knock-down of GPRASP3, the screen gave TNF reporter robust z-score 1.16; inactive.
For ANO9 (anoctamin 9) the deposit lists TNF reporter robust z-score -0.61; inactive.
Knock-down of ANO9 (anoctamin 9) resulted in: TNF reporter robust z-score -0.14; inactive.
Against ANO9 (anoctamin 9), the values are TNF reporter robust z-score -0.51; inactive.
Against ANO9 (anoctamin 9), the entry reads TNF reporter robust z-score -0.03; inactive.
With knock-down of ST8SIA4 (ST8 alpha-N-acetyl-neuraminide alpha-2,8-sialyltransferase 4) the results were TNF reporter robust z-score -0.46; inactive.
After knock-down of ST8SIA4 (ST8 alpha-N-acetyl-neuraminide alpha-2,8-sialyltransferase 4), the record shows TNF reporter robust z-score -0.47; inactive.
ST8SIA4 (ST8 alpha-N-acetyl-neuraminide alpha-2,8-sialyltransferase 4) scored TNF reporter robust z-score -0.22; inactive.
Against ST8SIA4 (ST8 alpha-N-acetyl-neuraminide alpha-2,8-sialyltransferase 4) the deposit lists TNF reporter robust z-score -0.04; inactive.
Depletion of CPLX4 (complexin 4) resulted in: TNF reporter robust z-score -0.37; inactive.
Against CPLX4 (complexin 4), the entry reads TNF reporter robust z-score -0.8; inactive.
After knock-down of CPLX4 (complexin 4), the screen gave TNF reporter robust z-score -0.77; inactive.
For CPLX4 (complexin 4), the entry reads TNF reporter robust z-score -1.31; inactive.
Knock-down of DYNAP (dynactin associated protein) resulted in: TNF reporter robust z-score -1.04; inactive.
DYNAP (dynactin associated protein) gave TNF reporter robust z-score -0.7; inactive.
DYNAP (dynactin associated protein) gave TNF reporter robust z-score -0.41; inactive.
After knock-down of DYNAP (dynactin associated protein), the record shows TNF reporter robust z-score -0.21; inactive.
With knock-down of LCN8 (lipocalin 8), the record shows TNF reporter robust z-score -2.31; active.
LCN8 (lipocalin 8) gave TNF reporter robust z-score -1.69; active.
With knock-down of LCN8 (lipocalin 8) the results were TNF reporter robust z-score -2.07; active.
With knock-down of LCN8 (lipocalin 8) the results were TNF reporter robust z-score -1.86; active.
Depletion of KRT85 (keratin 85) resulted in: TNF reporter robust z-score -1.25; inactive.
KRT85 (keratin 85) showed TNF reporter robust z-score -0.76; inactive.
With knock-down of KRT85 (keratin 85) the results were TNF reporter robust z-score -0.85; inactive.
KRT85 (keratin 85) scored TNF reporter robust z-score -1.04; inactive.
Knock-down of IGFBPL1 (insulin like growth factor binding protein like 1) came out at: TNF reporter robust z-score 0.08; inactive.
Against IGFBPL1 (insulin like growth factor binding protein like 1), the values are TNF reporter robust z-score 0.46; inactive.
Against IGFBPL1 (insulin like growth factor binding protein like 1), the values are TNF reporter robust z-score 1.3; inactive.
Knock-down of IGFBPL1 (insulin like growth factor binding protein like 1) resulted in: TNF reporter robust z-score 2.39; inactive.
TTBK1 (tau tubulin kinase 1) scored TNF reporter robust z-score 0.22; inactive.
Against TTBK1 (tau tubulin kinase 1), the entry reads TNF reporter robust z-score 0.2; inactive.
With knock-down of TTBK1 (tau tubulin kinase 1) the results were TNF reporter robust z-score -0.56; inactive.
TTBK1 (tau tubulin kinase 1) showed TNF reporter robust z-score 0.61; inactive.
